Data reported in patent US10463716B2 (UNIVERSITY OF MARYLAND, BALTIMORE, priority 2014, dated 2019).

System: C57/BL mice
Test: MI-induced heart failure by coronary artery ligation, echocardiography
Assay type: in vivo, mouse
Details: ELA infusion, Week 5
Description: C57/BL wild type mice at age of 14-16 months old were used. Mice were subjected to either MI by permanent ligation or sham treatment with a loose suture of the proximal left anterior descending (LAD) coronary artery under general anesthesia by 2% isoflurane inhalation, and mechanical ventilation via oral intubation. Left thoracotomy in the 3-4 intercostal space was performed and the pericardium was opened to expose the LV and the LAD. The artery was circled a 8-0 silk suture, and then either ligated permanently or remained loose (sham).
Twelve to 14 mice were used in each group.
Data were calculated with the accepted formulae, which have been validated in mice.
Coronary artery ligation (CAL) is a well-used procedure to create a mouse model of acute myocardial infarction (MI) and heart failure (HF). […] Echocardiography was conducted to access heart function before the procedure (baseline), and at 1 week and 5 weeks post-MI.

## CSCC[C@H](NC(=O)[C@@H](NC(=O)[C@H](CC(C)C)NC(=O)[C@H](CC(N)=O)NC(=O)[C@@H](NC(=O)[C@@H]1CCCN1C(=O)[C@H](CCCNC(=N)N)NC(=O)[C@@H](N)CCC(N)=O)C(C)C)[C@@H](C)O)C(=O)N[C@@H](CCCNC(=N)N)C(=O)N[C@@H](CCCNC(=N)N)C(=O)N[C@@H](CCCCN)C(=O)N[C@@H](CC(C)C)C(=O)N[C@@H](CCCNC(=N)N)C(=O)N[C@@H](CCCCN)C(=O)N[C@@H](Cc1c[nH]cn1)C(=O)N[C@@H](CC(N)=O)C(=O)N[C@H]1CSSC[C@@H](C(=O)N[C@@H](CCSC)C(=O)N2CCC[C@H]2C(=O)N[C@@H](CC(C)C)C(=O)N[C@@H](Cc2c[nH]cn2)C(=O)N[C@@H](CO)C(=O)N[C@@H](CCCNC(=N)N)C(=O)N[C@H](C(=O)N2CCC[C@H]2C(=O)N[C@@H](Cc2ccccc2)C(=O)N2CCC[C@H]2C(=O)O)C(C)C)NC(=O)[C@H](CCCNC(=N)N)NC(=O)[C@H](CCCNC(=N)N)NC(=O)[C@H](CCC(N)=O)NC(=O)[C@H](CC(C)C)NC1=O [ELA, Elabela]
  BW: 32.73 ± 1.38 g
  HR: 505.14 ± 12.73 bpm
